Some results were stated once for a whole list of compounds, not compound by compound. For some of these results: For at least one compound, name, drawing or mass did not settle the structure.
Columns and labels:
MLL-AF10 AML = MLL-AF10 AML secondary BMT mouse model; type: in vivo, mice; settings: 2.5 mg/kg i.p. once per day for 10 days; control 35 days
[1] = tested on: TET1-high AML (including MONOMAC-6, THP-1, and KASUMI-1) cells; assay: MTS viability of AML cell lines versus JAK/STAT inhibitors; type: cell-based; settings: stated as probable; 500 nM was the maximum concentration tested
Description: FIG. 4. […] (a) Structures of NSC-370284 and UC-514321. […] Cells were treated with drugs at indicated doses. Cell viability was detected by MTS 48 hrs post-treatment. Error bar indicates SD of triplicate experiments. […] Secondary BMT recipient mice were transplanted with primary leukemic BM cells with MLL-AF9 (f) or AML-ETO9a (g). […] Kaplan-Meier curves are shown. The P values were determined by log-rank test. […] Secondary BMT recipient mice were transplanted with primary leukemic BM cells with MLL-AF10 or FLT3-ITD/NPM1^mut. […] Kaplan-Meier curves are shown. The P values were determined by log-rank test. (j) Wright-Giemsa staining of mouse PB and BM, or H&E staining of mouse spleen and liver of MLL-AF9 AML secondary BMT recipients with or without drug treatment.
These experiments were conducted as described previously (Jiang, X., et al., Blockade of miR-150 Maturation by MLL-Fusion/MYC/LIN-28 Is Required for MLL-Associated Leukemia, Cancer Cell 22:524-35 (2012); Li, Z., et al., miR-196b directly targets both HOXA9/MEIS1 oncogenes and FAS tumour suppressor in MLL-rearranged leukaemia, Nat Commun 2:688 (2012)) with ApoLive-Glo Multiplex Assay Kit, or CellTiter 96 AQueous Non-Radioactive Cell Proliferation Assay Kit (Promega, Madison, Wis.).

SMILES | median survival (MLL-AF10 AML) [days] | IC50 [1] [nM]
COc1cc(C(c2cc3c(cc2O)OCO3)N2CCCC2)cc(OC)c1OC (stereo not shown) [NSC-370284, 6-(1-Pyrrolidinyl(3,4,5-trimethoxyphenyl)methyl)-1,3-benzodioxol-5-ol] | > 50 | 
O=[N+]([O-])c1ccc2c(c1)S(=O)(=O)C=C2 [Stattic] |  | > 500
CC(C)(C)c1cc(C(c2cc3c(cc2O)OCO3)N2CCOCC2)cc(C(C)(C)C)c1O (stereo not shown) [UC-514321, 6-{[4-Hydroxy-3,5-bis(2-methyl-2-propanyl)phenyl](4-morpholinyl)methyl}-1,3-benzodioxol-5-ol] | > 50 | 
O=C(NN=Cc1coc2ccccc2c1=O)c1cccnc1 [sc-355979] |  | > 500
